Results published in patent publication US20210403591A1.
Where a chain is given by its changes, count along the chain named. These are yes or no findings as the source states them, for the method shown. Some results given as binding are weak or reduced against the parent protein; the word gives no strength. For some assays here: Where a sequence is shown, tags or fusion partners need not be part of it.

By UniProt entry, the sequences of proteins in these tests, tags left out. Where a name states a change or a piece, a line headed by the entry shows the natural chain unless it says otherwise. Chains listed by the source or under a name are the forms on record and can include a tag or linker. Residues count along the entry.
purified WT mTfR-1 (ELISA coat) (Q62351, residues 89-763): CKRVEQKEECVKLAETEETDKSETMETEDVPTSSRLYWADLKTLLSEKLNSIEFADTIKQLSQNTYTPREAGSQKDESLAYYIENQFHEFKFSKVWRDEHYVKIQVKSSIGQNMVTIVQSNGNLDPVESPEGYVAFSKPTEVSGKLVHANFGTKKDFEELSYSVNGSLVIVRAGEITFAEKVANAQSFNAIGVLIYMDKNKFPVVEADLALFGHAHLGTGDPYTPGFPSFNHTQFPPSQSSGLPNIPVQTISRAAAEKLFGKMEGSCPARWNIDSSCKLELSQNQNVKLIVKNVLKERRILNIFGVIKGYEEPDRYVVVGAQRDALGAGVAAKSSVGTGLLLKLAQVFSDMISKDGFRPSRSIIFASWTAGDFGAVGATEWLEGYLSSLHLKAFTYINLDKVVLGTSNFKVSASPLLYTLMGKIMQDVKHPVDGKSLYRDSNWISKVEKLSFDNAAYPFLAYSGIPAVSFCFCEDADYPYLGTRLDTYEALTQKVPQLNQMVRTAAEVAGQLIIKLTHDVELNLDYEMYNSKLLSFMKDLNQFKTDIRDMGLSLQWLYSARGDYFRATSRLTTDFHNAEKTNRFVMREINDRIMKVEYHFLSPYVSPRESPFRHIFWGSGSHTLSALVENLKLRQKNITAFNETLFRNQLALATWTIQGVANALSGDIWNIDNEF
purified mTfR1 mutant M3 (NGA) (Q62351, form named): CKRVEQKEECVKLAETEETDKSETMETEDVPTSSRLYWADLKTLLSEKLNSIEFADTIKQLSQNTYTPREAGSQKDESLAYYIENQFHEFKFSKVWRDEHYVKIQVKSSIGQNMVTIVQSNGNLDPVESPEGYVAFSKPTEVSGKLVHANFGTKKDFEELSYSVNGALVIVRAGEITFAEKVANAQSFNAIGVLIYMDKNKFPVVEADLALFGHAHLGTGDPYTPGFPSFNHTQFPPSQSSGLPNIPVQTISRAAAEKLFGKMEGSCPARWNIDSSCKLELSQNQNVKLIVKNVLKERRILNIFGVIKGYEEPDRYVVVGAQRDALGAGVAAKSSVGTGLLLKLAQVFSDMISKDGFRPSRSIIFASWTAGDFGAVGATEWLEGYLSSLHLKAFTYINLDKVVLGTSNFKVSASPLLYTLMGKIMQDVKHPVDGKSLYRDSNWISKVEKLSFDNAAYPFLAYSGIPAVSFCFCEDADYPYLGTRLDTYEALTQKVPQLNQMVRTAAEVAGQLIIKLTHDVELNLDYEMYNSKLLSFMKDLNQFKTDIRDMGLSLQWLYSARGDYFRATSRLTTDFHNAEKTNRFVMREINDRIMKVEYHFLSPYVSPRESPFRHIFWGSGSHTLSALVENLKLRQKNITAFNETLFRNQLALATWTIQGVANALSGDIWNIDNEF
purified mTfR1 mutant M2 (NAS) (Q62351, form named): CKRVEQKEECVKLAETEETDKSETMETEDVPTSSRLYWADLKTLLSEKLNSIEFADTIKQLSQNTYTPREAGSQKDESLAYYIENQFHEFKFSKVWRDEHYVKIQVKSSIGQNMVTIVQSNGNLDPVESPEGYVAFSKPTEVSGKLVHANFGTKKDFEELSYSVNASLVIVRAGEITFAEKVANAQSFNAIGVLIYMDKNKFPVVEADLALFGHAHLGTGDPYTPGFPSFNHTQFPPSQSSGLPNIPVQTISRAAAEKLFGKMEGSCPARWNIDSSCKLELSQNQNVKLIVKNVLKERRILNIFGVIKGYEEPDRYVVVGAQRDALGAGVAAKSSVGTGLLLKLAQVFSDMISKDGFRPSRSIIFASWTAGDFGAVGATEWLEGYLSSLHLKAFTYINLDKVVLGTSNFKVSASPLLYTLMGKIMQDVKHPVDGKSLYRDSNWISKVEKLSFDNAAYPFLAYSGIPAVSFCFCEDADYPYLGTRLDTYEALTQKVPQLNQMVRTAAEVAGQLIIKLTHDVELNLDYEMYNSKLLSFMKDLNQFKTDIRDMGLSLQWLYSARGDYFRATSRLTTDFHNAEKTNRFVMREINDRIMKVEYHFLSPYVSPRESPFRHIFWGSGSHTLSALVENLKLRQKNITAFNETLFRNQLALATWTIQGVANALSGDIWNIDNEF
purified mTfR1 mutant M1 (AGS) (Q62351, form named): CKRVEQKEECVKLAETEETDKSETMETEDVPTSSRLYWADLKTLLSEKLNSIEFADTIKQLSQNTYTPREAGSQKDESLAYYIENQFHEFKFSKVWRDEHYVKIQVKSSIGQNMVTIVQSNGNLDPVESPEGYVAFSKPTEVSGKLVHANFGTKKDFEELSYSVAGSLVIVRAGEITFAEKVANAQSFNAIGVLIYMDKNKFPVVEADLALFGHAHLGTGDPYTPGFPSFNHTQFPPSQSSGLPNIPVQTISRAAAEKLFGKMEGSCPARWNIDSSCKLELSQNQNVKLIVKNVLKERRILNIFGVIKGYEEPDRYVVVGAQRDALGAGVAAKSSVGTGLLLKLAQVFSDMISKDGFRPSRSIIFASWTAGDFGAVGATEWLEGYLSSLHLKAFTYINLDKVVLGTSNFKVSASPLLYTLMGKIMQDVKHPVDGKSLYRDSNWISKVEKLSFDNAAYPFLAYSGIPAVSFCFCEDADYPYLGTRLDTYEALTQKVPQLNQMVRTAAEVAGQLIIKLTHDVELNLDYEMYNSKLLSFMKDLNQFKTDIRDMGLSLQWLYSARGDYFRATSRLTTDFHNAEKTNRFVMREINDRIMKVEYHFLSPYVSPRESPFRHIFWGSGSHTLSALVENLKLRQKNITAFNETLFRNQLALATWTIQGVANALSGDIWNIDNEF

B1: Clone H VNAR-hFc fusion (Fc fusion, not shown: a dimerising Fc or GST)
chain: ARVDQTPQTITKETGESLTINCVLRDSNCELSSTYWYRKKSGSTNEESISKGGRYVETVNSGSKSFSLRINDLVVEDSGTYRCNVQQFPSSSNGRYWCDVYGGGTAVTVNA
B2: Clone H variant 10 VNAR-hFc (Fc fusion, not shown: a dimerising Fc or GST)
chain: B1 chain with S91W, S92F
B3: Clone H variant 1 VNAR-hFc (Fc fusion, not shown: a dimerising Fc or GST)
chain: B1 chain with Q86V, F88W
B4: Clone C variant 18 VNAR-hFc (Fc fusion, not shown: a dimerising Fc or GST)
chain: ARVDQTPQTITKETGESLTINCVLRDSNCALSSTYWYRKKSGSTNEENISKGGRYVETVNSGSKSFSLRINDLTVEDSGTYRCNVVQYPQYPNYFWCDVYGDGTAVTVN
B5: Clone C variant 13 VNAR-hFc (Fc fusion, not shown: a dimerising Fc or GST)
chain: B4 chain with Y91Q, P92D
B6: Clone C VNAR-hFc fusion (Fc fusion, not shown: a dimerising Fc or GST)
chain: B4 chain with Q90S, P92N

These binders were tested against purified mTfR1 mutant M3 (NGA) (mouse) (UniProt Q62351) (assay: ELISA, plate coated with purified mTfR-1 mutant M3 (NGA), serial dilution of the VNAR-hFc; y axis Norm. Vmax OD at 650nm).

| binding | Binder |
| --- | --- |
| binds | B1 |
| binds | B2 |
| binds | B3 |
| binds | B4 |
| binds | B5 |

These binders were tested against purified mTfR1 mutant M2 (NAS) (mouse) (UniProt Q62351) (assay: ELISA, plate coated with purified mTfR-1 mutant M2 (NAS), serial dilution of the VNAR-hFc; y axis Norm. Vmax OD at 650nm).

| binding | Binder |
| --- | --- |
| binds | B2 |
| binds | B3 |
| binds | B4 |
| binds | B5 |

These binders were tested against purified mTfR1 mutant M1 (AGS) (mouse) (UniProt Q62351) (assay: ELISA, plate coated with purified mTfR-1 mutant M1 (AGS), serial dilution of the VNAR-hFc; y axis Norm. Vmax OD at 650nm).

| binding | Binder |
| --- | --- |
| binds | B1 |
| binds | B2 |
| binds | B3 |
| binds | B4 |
| binds | B5 |

What follows are binders tested against purified mTfR1 mutant M3 (NGA) (mouse) (UniProt Q62351) (assay: ELISA, plate coated with purified mTfR-1 mutant M3 (NGA), serial dilution of the binder; y axis Norm. Vmax OD at 650nm).

| binding | Binder |
| --- | --- |
| binds | B6 |

The binders below were run against purified WT mTfR-1 (ELISA coat) (mouse) (UniProt Q62351) (assay: ELISA, plate coated with purified WT mTfR-1, serial dilution of the VNAR-hFc; y axis Norm. Vmax OD at 650nm).

| binding | Binder |
| --- | --- |
| binds | B1 |
| binds | B2 |
| binds | B3 |
| binds | B4 |
| binds | B5 |

The binders below were run against purified mTfR1 mutant M3 (NGA) (mouse) (UniProt Q62351) (assay: ELISA, coated purified mTfR-1).

| binding | Binder |
| --- | --- |
| binds | B1 |
| binds | B2 |
| binds | B3 |
| binds | B6 |
| binds | B4 |
| binds | B5 |

What follows are binders tested against purified mTfR1 mutant M1 (AGS) (mouse) (UniProt Q62351) (assay: ELISA, coated purified mTfR-1).

| binding | Binder |
| --- | --- |
| binds | B1 |
| binds | B2 |
| binds | B3 |
| binds | B4 |
| binds | B5 |

The binders below were run against purified mTfR1 mutant M2 (NAS) (mouse) (UniProt Q62351) (assay: ELISA, coated purified mTfR-1).

| binding | Binder |
| --- | --- |
| binds | B2 |
| binds | B3 |
| binds | B4 |
| binds | B5 |
